At least one peptide structure holds a part that was inferred or is arguable (an end, a ring closure or a residue). Some of these results come from one statement about several compounds together. Ends that are not written are not given here.
How the values were obtained:
[1] = test system: S. aureus; assay: Radial diffusion assay, initial screening of Met1-Met12; assay type: cell-based, Staphylococcus aureus; details: 100 μg/well
[2] = test system: 4 ATCC bacterial strains; assay: Effect of NaCl on minimum inhibitory concentration; assay type: cell-based; details: 200 mM NaCl in MH medium
[3] = test system: S. aureus; assay: Bacterial adherence on coated silicon catheters; assay type: cell-based, Staphylococcus aureus; details: peptide immobilized on silicon catheter; 37° C., 6 h
[4] = test system: E. coli; assay: Bacterial adherence on coated silicon catheters; assay type: cell-based, Escherichia coli; details: peptide immobilized on silicon catheter; 37° C., 6 h

| Sequence | Activity against S. aureus, radial diffusion assay [1] | Increase in MIC values with NaCl [2] [fold] | Reduction of living cells of S. aureus [3] | Reduction of living cells of E. coli [4] [%] |
| --- | --- | --- | --- | --- |
| DCWSAMIRLHAKYNQV [Chain100] | exhibited activity |  |  |  |
| KWIVWRWRFKR [Chain201] |  | 2 | more than 70% | > 30 |
| NRIVQQRTSSR [Chain200] | exhibited activity |  |  |  |
| RKWRAMIRLHAKRLRK [Chain104] |  | 2 |  |  |
| RKWRAMIRLHAKWLRK [Chain105] |  | 2 | more than 70% | > 30 |
| RLKRWRLFRKR [Chain306] |  | 2 |  |  |
| RLKWFLLFRKR [Chain308] |  | 2 |  |  |
| RRLIWRRFKWLR [Chain204] |  | 2 |  |  |

From US10457709B2, “Antimicrobial peptides, their variants and uses” (priority 2015, dated 2019)
